Record: PubChem BioAssay AID504791 (Drosophila RNAi Screening Center, 2011)
In all, the deposit lists about 23,000 reagents; shown is an unselected part of those that have a named target and a result. In the full data, 199 (0.86%) got an active call. 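Plate-scaled ratios behind the calls are not deposited; printed light signals are raw; many rows marked increased or decreased are still called inactive.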 Reagents against one gene are numbered here. A plus sign joins genes that one reagent is predicted to hit. Not given: the direction of the score.

Aim: 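Genes of the fly required for silencing by miRNA, siRNA or endo-siRNA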 (primary screen)
Cells: Drosophila S2-derived reporter cells
Reagent: long dsRNA against Drosophila genes, about 150-250 ng dsRNA per well (siRNA assay); about 80-120 ng (miRNA assay)
Duration: about 5 days (siRNA assay); about 4 days (miRNA assay)
Treatment: copper sulfate induction of reporters: 25 µM (siRNA assay); 200 mM stated (miRNA assay), 1-2 days before reading
Detection: 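Per-well ratio of Renilla over firefly light, expressed relative to that plate's average ratio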
Units: stable assay Renilla, run 1 in luminescence; stable assay firefly, run 1 in luminescence
Call rule: 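First-pass picks had plate-scaled ratios over 1.5 for the siRNA assay, over 1.6 for the miRNA assay, or under 0.6; two distinct dsRNAs had to score alike on retest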

CG6287: stable assay Renilla, run 1 = 16651; stable assay firefly, run 1 = 1.03e6; Call = inactive
Pex14: stable assay Renilla, run 1 = 7479; stable assay firefly, run 1 = 4.43e5; Call = inactive
CG4218: stable assay Renilla, run 1 = 6422; stable assay firefly, run 1 = 4.41e5; Call = inactive
Xrp1 #1: stable assay Renilla, run 1 = 5372; stable assay firefly, run 1 = 2.27e5; Call = inactive
Xrp1 #2: stable siRNA reporter change = reporter ratio lowered past the hit cutoff; stable assay Renilla, run 1 = 4684; stable assay firefly, run 1 = 4.02e5; Call = active
Xrp1 #3: miRNA reporter change = reporter ratio lowered past the hit cutoff; Call = active
CG15471: stable assay Renilla, run 1 = 5594; stable assay firefly, run 1 = 3.43e5; Call = inactive
Sms: stable assay Renilla, run 1 = 6032; stable assay firefly, run 1 = 2.99e5; Call = inactive
CG8539 #1: stable assay Renilla, run 1 = 7538; stable assay firefly, run 1 = 4.23e5; Call = inactive
CG8539 #2: stable assay Renilla, run 1 = 10025; stable assay firefly, run 1 = 5.25e5; Call = inactive
SmD1: stable siRNA reporter change = reporter ratio raised past the hit cutoff; stable assay Renilla, run 1 = 19794; stable assay firefly, run 1 = 7.72e5; Call = active
Lim1 #1: stable assay Renilla, run 1 = 9422; stable assay firefly, run 1 = 7.26e5; Call = inactive
Lim1 #2: stable assay Renilla, run 1 = 3316; stable assay firefly, run 1 = 4.17e5; Call = inactive
Polr2F: stable assay Renilla, run 1 = 4227; stable assay firefly, run 1 = 1.86e5; Call = inactive
Ir41a #1: stable assay Renilla, run 1 = 5582; stable assay firefly, run 1 = 4.06e5; Call = inactive
Ir41a #2: stable assay Renilla, run 1 = 6875; stable assay firefly, run 1 = 3.66e5; Call = inactive
CG11586: stable assay Renilla, run 1 = 3399; stable assay firefly, run 1 = 3.75e5; Call = inactive
ckd: stable assay Renilla, run 1 = 5420; stable assay firefly, run 1 = 4.73e5; Call = inactive
sotv + CG10731 #1: stable assay Renilla, run 1 = 6032; stable assay firefly, run 1 = 3.11e5; Call = inactive
sotv + CG10731 #2: stable assay Renilla, run 1 = 6583; stable assay firefly, run 1 = 2.67e5; Call = inactive
SCAR: stable assay Renilla, run 1 = 6314; stable assay firefly, run 1 = 3.04e5; Call = inactive
Polr1C: stable assay Renilla, run 1 = 11049; stable assay firefly, run 1 = 7.57e5; Call = inactive
ND-B17: stable assay Renilla, run 1 = 7002; stable assay firefly, run 1 = 4.24e5; Call = inactive
sxe2: stable assay Renilla, run 1 = 8377; stable assay firefly, run 1 = 2.94e5; Call = inactive
Jig: stable assay Renilla, run 1 = 6695; stable assay firefly, run 1 = 4.30e5; Call = inactive
CG5445 #1: stable assay Renilla, run 1 = 5395; stable assay firefly, run 1 = 4.38e5; Call = inactive
CG5445 #2: stable assay Renilla, run 1 = 3323; stable assay firefly, run 1 = 2.98e5; Call = inactive
GstD7: stable assay Renilla, run 1 = 4224; stable assay firefly, run 1 = 6.17e5; Call = inactive
CG10669: stable assay Renilla, run 1 = 7415; stable assay firefly, run 1 = 3.98e5; Call = inactive
CG4962: stable assay Renilla, run 1 = 7630; stable assay firefly, run 1 = 4.51e5; Call = inactive
CG34203: stable assay Renilla, run 1 = 5287; stable assay firefly, run 1 = 2.90e5; Call = inactive
asun: miRNA reporter change = reporter ratio raised past the hit cutoff; stable assay Renilla, run 1 = 22147; stable assay firefly, run 1 = 5.87e5; Call = active
CG34328: stable siRNA reporter change = reporter ratio raised past the hit cutoff; stable assay Renilla, run 1 = 8338; stable assay firefly, run 1 = 1.17e5; Call = inactive
CG32645 #1: stable assay Renilla, run 1 = 5614; stable assay firefly, run 1 = 3.63e5; Call = inactive
CG32645 #2: stable assay Renilla, run 1 = 5627; stable assay firefly, run 1 = 4.04e5; Call = inactive

Copied from the list:
For “Call”, sotv + CG10731 #1 is entered as inactive
Jig, stable assay Renilla, run 1 → 6695
Result for Lim1 #2 in “Call”: inactive
Entry for SmD1 under “stable assay firefly, run 1”: 7.72e5
For “Call”, Lim1 #1 is entered as inactive
Value of CG8539 #2 under “stable assay Renilla, run 1”: 10025
